{
  "source": "patent US20090275497A1",
  "about": "“METHOD FOR IDENTIFYING MODULATORS OF THE ACTIVITY OF ION-CHANNELS RECEPTORS” (CENTRE NATIONAL DE LA RECHERCHE SCIENTIFIQUE (CNRS), priority 2004, published 2009)",
  "tested_on": "P2X2 to GABA receptors",
  "conditions": "electrophysiological techniques; ratio of P2X2 to GABA receptors 1:1",
  "data": [
    {"smiles": "NCCCC(=O)O", "note": "[GABA, gamma-Aminobutyric acid]", "values": [
      {"measurement": "current inhibition by GABA of the response mediated by ATP", "result": "≤ 50", "unit": "%"}
    ]}
  ]
}
